This assay has as its system DUX4. As to the kind of experiment: DUX4 expression downregulation by kinase family inhibitors (Table 1). As to conditions: DUX4 reduction. In kind it is cell-based.

`Cc1ccc(NC(=O)c2ccc(CN3CCN(C)CC3)cc2)cc1Nc1nccc(-c2cccnc2)n1` [Imatinib]: the EC50 came to 0.38 µM.

The record behind these values is patent publication US11806343B2, “Inhibitors of DUX4 induction for regulation of muscle function” (Sonic Master Limited, priority 2017, dated 2023).
